Values from PubChem BioAssay AID686938 (Drosophila RNAi Screening Center, 2013)
The screen tested about 23,000 reagents; below is an unselected part of those with a known target gene and a result. Over the whole deposit, 75 (0.33%) got an active call. 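Raw plate signals without normalisation; calls rest on plate z-scores that were not deposited; ratio present for only 364 wells.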 Not given: the dose of the treatment.

Assay: 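Looking for CRAC channel components and the factors controlling them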 (primary screen)
Cell system: Drosophila S2R+ cells
Reagents: long dsRNA against Drosophila genes, about 0.25 µg dsRNA per well, roughly 10,000 cells
Duration: 5 days of knock-down before the calcium assay
Challenge: thapsigargin (SERCA pump blocker) to empty calcium stores; entry signal taken 4 min after adding it
Measurement: 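Duplicate raw fluo-4 intensities per well from a plate reader, at rest and four minutes after thapsigargin emptied calcium stores; entry-to-rest ratio filled for only some wells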
Scale: calcium entry signal: higher = stronger calcium signal after store depletion; resting calcium signal: higher = higher resting calcium signal
Hit rule: 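Called when the plate z-score of the entry-to-rest ratio, mean of duplicates, falls below −3; wells with low overall dye signal (Fmax z below −2) or more than five off-targets excluded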
Calls: active = strongly reduced calcium entry; inactive = no strong reduction

Target gene	dsRNA	calcium entry signal, replicate 1 (fluorescence units)	calcium entry signal, replicate 2 (fluorescence units)	resting calcium signal, replicate 1 (fluorescence units)	resting calcium signal, replicate 2 (fluorescence units)	Call
CG6329	DRSC06976	3.00e7	3.42e7	1.36e7	1.69e7	inactive
Eig71Ea	DRSC11148	4.02e7	4.94e7	1.82e7	2.16e7	inactive
Fas2	DRSC17308	4.25e7	4.23e7	2.02e7	1.80e7	inactive
Fas2	DRSC17309	4.95e7	5.30e7	2.48e7	2.13e7	inactive
Fas2	DRSC18664	3.62e7	4.36e7	1.86e7	2.04e7	inactive
CG13996	DRSC02328	4.35e7	3.72e7	1.98e7	1.67e7	inactive
Edc3	DRSC10620	3.31e7	3.91e7	1.64e7	2.41e7	inactive
l(2)34Fc	DRSC01910	4.35e7	3.33e7	2.10e7	1.54e7	inactive
CG34297	DRSC12410	2.15e7	3.78e7	1.20e7	1.70e7	inactive
Antp	DRSC12490	4.71e7	5.46e7	2.12e7	2.56e7	inactive
Antp	DRSC23104	4.52e7	3.73e7	2.20e7	1.59e7	inactive
E(bx)	DRSC08172	3.47e7	3.97e7	1.88e7	1.84e7	inactive
E(bx)	DRSC08509	3.27e7	3.70e7	1.74e7	1.75e7	inactive
E(bx)	DRSC08583	4.82e7	3.94e7	2.19e7	1.99e7	inactive
CCT4	DRSC02865	2.95e7	2.02e7	1.61e7	1.09e7	inactive
Obp56i	DRSC05812	2.12e7	4.73e7	1.13e7	2.06e7	inactive
e(y)2	DRSC19640	3.09e7	4.15e7	1.43e7	1.91e7	inactive
CG9986	DRSC16586	6.01e7	4.97e7	2.53e7	2.38e7	inactive
CG13653	DRSC14653	4.41e7	7.47e7	2.28e7	3.03e7	inactive

Sorted by “calcium entry signal, replicate 1 (fluorescence units)” (ascending): some entries from above
Target gene	dsRNA	calcium entry signal, replicate 1 (fluorescence units)	calcium entry signal, replicate 2 (fluorescence units)	resting calcium signal, replicate 1 (fluorescence units)	resting calcium signal, replicate 2 (fluorescence units)	Call
Edc3	DRSC10620	3.31e7	3.91e7	1.64e7	2.41e7	inactive
Fas2	DRSC18664	3.62e7	4.36e7	1.86e7	2.04e7	inactive
Fas2	DRSC17308	4.25e7	4.23e7	2.02e7	1.80e7	inactive
CG13996	DRSC02328	4.35e7	3.72e7	1.98e7	1.67e7	inactive
Fas2	DRSC17309	4.95e7	5.30e7	2.48e7	2.13e7	inactive

The listing continues:
Target gene	dsRNA	calcium entry signal, replicate 1 (fluorescence units)	calcium entry signal, replicate 2 (fluorescence units)	resting calcium signal, replicate 1 (fluorescence units)	resting calcium signal, replicate 2 (fluorescence units)	Call
gas	DRSC04521	3.18e7	3.45e7	1.70e7	1.58e7	inactive
Nadk1a	DRSC05431	5.36e7	4.72e7	2.17e7	2.01e7	inactive
Nadk1a	DRSC06963	2.50e7	2.92e7	1.10e7	1.44e7	inactive
Ras85D	DRSC16814	2.47e7	2.66e7	1.49e7	1.59e7	inactive
CG2493	DRSC02707	3.81e7		2.07e7		inactive
Vha16-1	DRSC05020	5.28e7	4.47e7	3.27e7	2.81e7	inactive
nAChRalpha3	DRSC18800	3.41e7	5.53e7	1.80e7	2.64e7	inactive
CheA46a	DRSC05184	3.40e7	4.76e7	1.69e7	2.23e7	inactive
CG4982	DRSC10465	4.12e7	2.90e7	1.79e7	1.49e7	inactive
Trx2	DRSC03622	2.66e7	4.84e7	1.42e7	2.08e7	inactive
CG30284	DRSC22150	3.52e7	5.72e7	1.64e7	2.59e7	inactive
CG2063	DRSC06811	3.18e7	4.34e7	1.89e7	1.98e7	inactive
Cyp49a1	DRSC06737	3.89e7	4.61e7	1.83e7	1.87e7	inactive
Cyp49a1	DRSC07367	3.74e7	4.03e7	1.74e7	1.72e7	inactive
Gk1	DRSC08533	3.79e7	3.56e7	1.84e7	1.78e7	inactive
Gk1	DRSC08534	3.39e7	4.71e7	1.75e7	1.99e7	inactive
DCP1	DRSC04091	3.83e7		1.87e7		inactive
CG6865	DRSC10732	2.40e7	5.12e7	1.47e7	2.12e7	inactive
RabX4	DRSC22189	3.65e7	4.92e7	1.74e7	2.64e7	inactive
CG34367	DRSC02238	4.19e7	6.64e7	2.02e7	2.61e7	inactive
CG34367	DRSC02850	3.33e7	5.90e7	1.70e7	2.27e7	inactive
Shrm	DRSC06437	2.35e7	3.03e7	1.24e7	1.34e7	inactive
Shrm	DRSC06438	2.10e7	2.58e7	1.08e7	1.23e7	inactive
Shrm	DRSC07221	4.18e7	4.71e7	1.75e7	2.10e7	inactive
Shrm	DRSC23067	5.77e7	3.41e7	2.71e7	1.31e7	inactive
AspRS	DRSC05914	3.80e7	4.07e7	1.73e7	1.85e7	inactive
CG33233	DRSC08239	4.16e7	4.43e7	2.12e7	1.96e7	inactive
Egfr	DRSC03871	3.12e7	6.92e7	1.40e7	2.75e7	inactive
Egfr	DRSC04613	3.90e7		1.99e7		inactive
CG13227	DRSC06347	1.82e7	2.02e7	9.46e6	1.00e7	inactive
CG15820	DRSC08480	3.97e7	3.30e7	1.73e7	1.74e7	inactive
CG13800 (retired record)	DRSC08334	3.53e7	4.44e7	1.70e7	1.92e7	inactive
CG30376	DRSC05086	3.41e7	4.65e7	1.81e7	2.06e7	inactive
ntc	DRSC08166	4.49e7	3.52e7	2.74e7	1.42e7	inactive
CG7997	DRSC07052	4.24e7	3.80e7	1.93e7	1.86e7	inactive
CG32642	DRSC18959	4.96e7	3.32e7	2.11e7	1.60e7	inactive
CG31220	DRSC22248	2.08e7	4.88e7	1.07e7	2.13e7	inactive
Wnt4	DRSC00976	2.67e7	3.67e7	1.64e7	1.68e7	inactive
Wnt4	DRSC03477	3.88e7	3.16e7	1.92e7	1.54e7	inactive
